Assay results taken from article PMC10066190.
No constants are given. Whether binding was seen depends on the method and setting. In cells and extracts the contact can be indirect. Some results given as binding are weak or reduced against the parent protein; the word gives no strength. Where a sequence is shown, tags or fusion partners need not be part of it.

Sequences of proteins named here, by UniProt entry; tags and fusion partners are left off.
UniProt Q12888: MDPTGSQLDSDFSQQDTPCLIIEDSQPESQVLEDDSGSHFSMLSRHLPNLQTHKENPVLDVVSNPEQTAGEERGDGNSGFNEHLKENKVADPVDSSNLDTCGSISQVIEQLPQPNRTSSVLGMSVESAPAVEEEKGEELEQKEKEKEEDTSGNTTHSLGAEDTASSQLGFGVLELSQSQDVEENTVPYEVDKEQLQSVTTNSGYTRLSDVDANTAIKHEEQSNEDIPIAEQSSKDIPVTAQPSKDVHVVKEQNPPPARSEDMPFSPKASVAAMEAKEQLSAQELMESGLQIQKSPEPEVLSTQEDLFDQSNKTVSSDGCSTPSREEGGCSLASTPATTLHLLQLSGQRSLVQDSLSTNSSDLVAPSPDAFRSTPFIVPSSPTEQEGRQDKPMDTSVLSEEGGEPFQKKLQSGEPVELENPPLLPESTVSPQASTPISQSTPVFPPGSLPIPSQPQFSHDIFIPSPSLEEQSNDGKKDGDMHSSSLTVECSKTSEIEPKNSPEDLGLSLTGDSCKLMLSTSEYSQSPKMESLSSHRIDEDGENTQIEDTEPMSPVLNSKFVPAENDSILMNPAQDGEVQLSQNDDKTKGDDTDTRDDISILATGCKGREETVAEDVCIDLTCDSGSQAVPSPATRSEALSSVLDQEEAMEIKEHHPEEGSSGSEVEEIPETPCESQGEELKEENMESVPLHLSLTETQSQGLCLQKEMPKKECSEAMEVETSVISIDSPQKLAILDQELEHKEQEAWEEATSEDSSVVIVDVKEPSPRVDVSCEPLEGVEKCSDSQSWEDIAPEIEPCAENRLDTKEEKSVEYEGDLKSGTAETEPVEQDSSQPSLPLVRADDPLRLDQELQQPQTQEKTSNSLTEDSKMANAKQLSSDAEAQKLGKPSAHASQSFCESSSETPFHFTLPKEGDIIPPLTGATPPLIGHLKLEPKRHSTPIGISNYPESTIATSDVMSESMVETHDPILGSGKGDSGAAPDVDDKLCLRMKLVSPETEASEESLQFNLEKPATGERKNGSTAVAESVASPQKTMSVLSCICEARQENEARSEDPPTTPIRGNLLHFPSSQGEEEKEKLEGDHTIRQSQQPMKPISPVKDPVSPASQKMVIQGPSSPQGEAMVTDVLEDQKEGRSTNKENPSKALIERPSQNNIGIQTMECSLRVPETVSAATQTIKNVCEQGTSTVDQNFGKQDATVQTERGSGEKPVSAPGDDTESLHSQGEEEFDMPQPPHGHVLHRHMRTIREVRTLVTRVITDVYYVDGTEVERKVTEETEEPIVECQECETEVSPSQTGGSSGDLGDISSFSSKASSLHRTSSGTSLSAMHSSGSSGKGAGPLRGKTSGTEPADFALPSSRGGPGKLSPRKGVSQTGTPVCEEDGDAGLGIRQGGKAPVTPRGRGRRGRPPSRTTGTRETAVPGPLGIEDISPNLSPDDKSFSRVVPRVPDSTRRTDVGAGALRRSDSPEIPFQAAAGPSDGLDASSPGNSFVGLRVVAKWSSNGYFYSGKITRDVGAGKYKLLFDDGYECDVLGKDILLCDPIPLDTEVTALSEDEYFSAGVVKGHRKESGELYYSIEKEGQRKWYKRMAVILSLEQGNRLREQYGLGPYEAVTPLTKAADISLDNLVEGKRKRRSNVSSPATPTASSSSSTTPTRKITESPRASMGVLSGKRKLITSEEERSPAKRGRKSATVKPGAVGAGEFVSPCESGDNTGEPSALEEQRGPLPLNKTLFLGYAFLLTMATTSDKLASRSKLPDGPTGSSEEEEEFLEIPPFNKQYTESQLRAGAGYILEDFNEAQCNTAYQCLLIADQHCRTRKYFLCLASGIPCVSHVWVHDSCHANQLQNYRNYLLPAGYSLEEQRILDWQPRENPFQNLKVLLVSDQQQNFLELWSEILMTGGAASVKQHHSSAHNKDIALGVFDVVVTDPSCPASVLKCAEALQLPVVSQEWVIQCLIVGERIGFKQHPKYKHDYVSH

Target: 53BP1 in 293T cells (co-IP with ectopic TRABID) (UniProt Q12888)
Assay: co-IP; 293T cells transfected with the indicated plasmids (Fig. 2a with or without IR for 1 h); lysis in IP buffer (50 mM Tris-HCl pH 7.4, 150 mM NaCl, 1% Triton X-100, 1% sodium deoxycholate); primary antibody and protein A/G agarose overnight at 4 °C; western blot

binding: binds
B1: TRABID OTU domain (residues 340 to 708), Myc-tagged truncated mutant (domain or fragment, UniProt Q9UGI0 340-708)
chain: AKCIPAMVCPELTEQIRREIAASLHQRKGDFACYFLTDLVTFTLPADIEDLPPTVQEKLFDEVLDRDVQKELEEESPIINWSLELATRLDSRLYALWNRTAGDCLLDSVLQATWGIYDKDSVLRKALHDSLHDCSHWFYTRWKDWESWYSQSFGLHFSLREEQWQEDWAFILSLASQPGASLEQTHIFVLAHILRRPIIVYGVKYYKSFRGETLGYTRFQGVYLPLLWEQSFCWKSPIALGYTRGHFSALVAMENDGYGNRGAGANLNTDDDVTITFLPLVDSERKLLHVHFLSAQELGNEEQQEKLLREWLDCCVTEGGVLVAMQKSSRRRNHPLVTQMVEKWLDRYRQIRPCTSLSDGEEDEDDEDE
